Square brackets hold non-standard residues; d marks the D form. Peptide text beside a SMILES is read from it. * marks the point of attachment. pNA = O=[N+]([O-])c1ccc(N*)cc1; Boc = CC(C)(C)OC(=O)*
Columns and labels:
[1] = general procedure: solution-phase peptide synthesis; ONSu active esters with DIPEA in DMF
[2] = test system: thrombin formation in plasma; assay: Continuous registration of the thrombin generation curve (continuous assay of ETP); type: biochemical, human; conditions: for heparin (ISH) concentration at which the substrate gives a correct thrombin generation curve in the continuous assay: heparinized plasma, substrate 500 μM
Procedure: (§1) Continuous registration of the thrombin generation curve: Extrinsic pathway: In a polystyrene microcuvette were added: 400 μL defibrinated plasma, 20 μL of a 45 μM phospholipid solution (final concentration: 1.5 μM), 140 μL of buffer A which contains the substrate at the desired final concentration (100-2000 μM). After 4 min of incubation at 37° C., 20 μL tissue factor (undiluted) was added. Thrombin generation was started by adding 20 μL of a 0.5 M CaCl2 solution (final concentration: 16.67 mM); during the measurement the temperature was kept at 37° C. The optical density was monitored at 405 nm. From the obtained optical density curve, the first derivative was calculated. This gives the enzyme concentration during the measurement. Intrinsic pathway: 400 μL defibrinated plasma, 110 μL buffer A (eventually containing the substances to be tested) and 40 μL Actin FS (undiluted) were added in a plastic microcuvette, intensively mixed and incubated at 37° C. during 4 min. Then 30 μL of a 10 mM substrate solution (final concentration: 500 μM), followed by 20 μL of a 0.5 M CaCl2 solution (final concentration: 16.7 mM) were added (both solutions were prewarmed at 37° C. for 4 min). The optical density was measured at 37° C. at 405 nm during 20 min.
as §1, with “concentration: 1.5 μM) and 140 μL” for “concentration: 1.5 μM), 140 μL”, “final concentration (500 μM). After” for “final concentration (100-2000 μM). After”, “derivative was calculated giving the enzyme” for “derivative was calculated. This gives the enzyme”, “20 min. Contact activation: 400 μL defibrinated plasma, 100 μL buffer A (eventually containing the substances to be tested), 9 μL of a 100 μM phospholipid solution (final concentration: 1.5 μM) and 40 μL kaolin (0.5 mg/mL) were added in a plastic microcuvette, intensively mixed and incubated at 37° C. during 4 min. (It was not necessary to remove kaolin by centrifugation.) Then 30 μL of a 10 mM substrate solution (final concentration: 500 μM), followed by 20 μL of a 0.5 M CaCl2 solution (final concentration: 16.7 mM) were added (both solutions were prewarmed at 37° C. for 4 min). The optical density was measured at 37° C. at 405 nm during 25 min.” for “20 min.”

[3] = late stage modification step, 2HCl

Boc-Gly-Pro-Gly-Val-Arg-pNA.HCl showed a step yield ([1]; coupling step, HCl) of 76%.
With 2HCl.H-Glu-Pro-Gly-Gly-Val-Arg-pNA the step yield [1, 3] was 92%.
Molecule Boc-Glu(OtBu)-Gly-Gly-Val-Arg-pNA.HCl has a step yield ([1]; coupling step, HCl) of 79%.
For `CC(C)[C@H](NC(=O)OCCS(C)(=O)=O)C(=O)N[C@@H](CCCNC(=N)N)C(=O)Nc1ccc([N+](=O)[O-])cc1.Cl` [Msc-Val-Arg-pNA.HCl], the “heparin activity of the sample at which the substrate can be used for ETP determination in a continuous assay” value (from here on “heparin activity of the sample”) [2] was “up to 0.25 U ISH/ml”, the “limit of reliable detectability of ETP, of the normal value of plasma” value [2] was 2.5% and the “heparin (ISH) concentration at which the substrate gives a correct thrombin generation curve in the continuous assay” value (“heparin (ISH) concentration” for short) [2] was 0.25 U ISH/mL.
2HCl.H-Pro-Gly-Gly-Val-Arg-pNA showed a step yield ([1]; late stage modification step, HCl) of 87%.
In the case of “Boc-Glu(OtBu)-Gly-Gly-Gly-Val-Arg-pNA.HCl”, the step yield ([1]; coupling step, HCl) is reported as 82%.
Boc-Glu(OtBu)-Gly-Val-Arg-pNA.HCl showed a step yield ([1]; coupling step, HCl) of 90%.
In the case of Boc-Gly-Gly-Gly-Val-Arg-pNA.HCl, the step yield ([1]; coupling step, HCl) is reported as 81%.
2HCl.H-Glu-Gly-Gly-Val-Arg-pNA showed a step yield [1, 3] of 94%.
Work on “Boc-Glu(OtBu)-Pro-Gly-Gly-Val-Arg-pNA.HCl” yielded a step yield ([1]; coupling step, HCl) of 79%.
For `CC(C)[C@H](NC(=O)CNC(=O)OC(C)(C)C)C(=O)N[C@@H](CCCNC(=N)N)C(=O)Nc1ccc([N+](=O)[O-])cc1.Cl` [Boc-Gly-Val-Arg-pNA.HCl] (Boc-Gly-Val-Arg-pNA), the “heparin (ISH) concentration” value [2] was “up to 2 U ISH/mL”.
Molecule Boc-Pro-Gly-Gly-Val-Arg-pNA.HCl has a step yield ([1]; coupling step, HCl) of 81%.
With `CC(C)[C@H](N)C(=O)N[C@@H](CCCNC(=N)N)C(=O)Nc1ccc([N+](=O)[O-])cc1.Cl.Cl` [2HCl.H-Val-Arg-pNA] (H-Val-Arg-pNA) the “heparin activity of the sample” value [2] was 0.10-0.15 U ISH/ml.
In the case of `COC(=O)CC(=O)NC(C)(C)C(=O)N[C@@H](CCCNC(=N)N)C(=O)Nc1ccc([N+](=O)[O-])cc1.Cl` [MZ-Aib-Arg-pNA.HCl, malonyl-α-aminoisobutyryl-arginine p-nitroanilide methyl ester monohydrochloride], the “anticoagulant activity of the sample below which the substrate can be used in a continuous assay for ETP determination” value [2] is reported as < 0.7 International Standard Units of heparin, the “heparin activity of the sample” value [2] is reported as “at most 0.07 U ISH/ml” and the “limit of reliable detectability of ETP, of the normal value of plasma” value [2] is reported as 5%. For the same molecule, the “jump in optical density of plasma at the end of the ETP assay” value ([2]; optimal conditions) was ~100 mOD.
Work on 2HCl.H-Glu-Gly-Gly-Gly-Val-Arg-pNA yielded a step yield [1, 3] of 91%.
With `Cl.Cl.NCCCC[C@H](NC(=O)[C@@H]1CCCN1C(=O)[C@H](N)Cc1ccccc1)C(=O)Nc1ccc([N+](=O)[O-])cc1` [2HCl.H-D-Phe-Pro-Lys-pNA] (H-[dF]-Pro-Lys-pNA) the “heparin (ISH) concentration” value [2] was 5 U ISH/mL.
For “Boc-Glu(OtBu)-Gly-Pro-Gly-Val-Arg-pNA.HCl”, the step yield ([1]; coupling step, HCl) was 91%.
With 2HCl.H-Glu-Gly-Pro-Gly-Val-Arg-pNA the step yield [1, 3] was 90%.

Source: patent publication US6207399A (Hemker; Hendrik Coenraad, priority 1995, dated 2001)
